Data source: PubChem BioAssay AID1224830 (NIAID, 2016)
Shown is one part, drawn at random, of about 18,000 reagents tested. Over the whole deposit, about 2,900 (16%) got an active call. 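Calls are made per well; low scores hint the gene aids the LPS response, high scores that it dampens it.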 Repeated entries: four replicate wells of each siRNA pool.

Aim: 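Genes whose knock-down alters the TNF-alpha reporter response to LPS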 (primary screen)
System: human THP-1 monocytic leukaemia cells, TNF dual-luciferase reporter clone, PMA-differentiated to macrophage-like cells
Reagent: siRNA pool against human genes, 50 nM
Timing: LPS for 4 h, given about 3 days after siRNA transfection
Treatment: bacterial LPS (TLR4 ligand), 10 ng/ml
Read-out: 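TNF firefly reporter luminescence divided by renilla, normalised to the plate median, then turned into a robust z-score for each replicate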
Direction: TNF reporter robust z-score: higher = stronger TNF reporter response to LPS
Active means: 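Each well counts as active if its z-score is over 2.8 or under -1.5; controls are left without a call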

| target gene | PubChem SID | TNF reporter robust z-score | activity call |
| --- | --- | --- | --- |
| GPD2 | SID315448979 | 0.1 | inactive |
| GPD2 | SID315448979 | 0.45 | inactive |
| GPD2 | SID315448979 | 0.65 | inactive |
| GPD2 | SID315448979 | 0.8 | inactive |
| NAT14 | SID315458263 | 3.92 | active |
| NAT14 | SID315458263 | 0.93 | inactive |
| NAT14 | SID315458263 | 0.47 | inactive |
| NAT14 | SID315458263 | -0.06 | inactive |
| STAU2 | SID315455898 | 0.48 | inactive |
| STAU2 | SID315455898 | 0.67 | inactive |
| STAU2 | SID315455898 | -0.24 | inactive |
| STAU2 | SID315455898 | 1.05 | inactive |
| PRDX1 | SID315450412 | 0.96 | inactive |
| PRDX1 | SID315450412 | 0.29 | inactive |
| PRDX1 | SID315450412 | 1.03 | inactive |
| PRDX1 | SID315450412 | 1.89 | inactive |
| SLC16A11 | SID315462752 | 0.65 | inactive |
| SLC16A11 | SID315462752 | 2.34 | inactive |
| SLC16A11 | SID315462752 | 1.9 | inactive |
| SLC16A11 | SID315462752 | 2.32 | inactive |
| SCGB1D4 | SID315464841 | 1.59 | inactive |
| SCGB1D4 | SID315464841 | 2 | inactive |
| SCGB1D4 | SID315464841 | 0.79 | inactive |
| SCGB1D4 | SID315464841 | 1.66 | inactive |
| MAN2A1 | SID315449873 | -1.06 | inactive |
| MAN2A1 | SID315449873 | -1.29 | inactive |
| MAN2A1 | SID315449873 | -1.31 | inactive |
| MAN2A1 | SID315449873 | -1.4 | inactive |
| FBXO10 | SID315455747 | 0.61 | inactive |
| FBXO10 | SID315455747 | 2.17 | inactive |
| FBXO10 | SID315455747 | 3.17 | active |
| FBXO10 | SID315455747 | 0.53 | inactive |
| MFSD2B | SID315464525 | 0.75 | inactive |
| MFSD2B | SID315464525 | 0.65 | inactive |
| MFSD2B | SID315464525 | 0.8 | inactive |
| MFSD2B | SID315464525 | 0.02 | inactive |
| LRRC4C | SID315458547 | -1.1 | inactive |
| LRRC4C | SID315458547 | -0.55 | inactive |
| LRRC4C | SID315458547 | -0.47 | inactive |
| LRRC4C | SID315458547 | 0.07 | inactive |
| BAGE3 | SID315460661 | -1.2 | inactive |
| BAGE3 | SID315460661 | -0.09 | inactive |
| BAGE3 | SID315460661 | -1.06 | inactive |
| BAGE3 | SID315460661 | -0.71 | inactive |
| C10orf95 | SID315459580 | -0.53 | inactive |
| C10orf95 | SID315459580 | -0.94 | inactive |
| C10orf95 | SID315459580 | -0.82 | inactive |
| C10orf95 | SID315459580 | 1.02 | inactive |

A stretch from the list above, for reference:
| target gene | PubChem SID | TNF reporter robust z-score | activity call |
| --- | --- | --- | --- |
| GPD2 | SID315448979 | 0.8 | inactive |
| NAT14 | SID315458263 | 3.92 | active |
| NAT14 | SID315458263 | 0.93 | inactive |
| NAT14 | SID315458263 | 0.47 | inactive |
| NAT14 | SID315458263 | -0.06 | inactive |
| STAU2 | SID315455898 | 0.48 | inactive |
| STAU2 | SID315455898 | 0.67 | inactive |
